PubChem BioAssay AID248 (DTP/NCI, 2004)
The list is a part of this screen's results and no random one: it is rich in T/C values a quarter to a half above the control, in often repeated tests (any T/C) and in doses without a T/C. Other doses and runs of a compound stand elsewhere. T/C is the treated group as % of the vehicle group. Some doses have a count of surviving animals in place of a T/C: the source files T/C as zero there, which appears to mark a toxic dose or a test without result, not a measured value. Some doses without a T/C left all or most animals alive at the check, yet need not have been tolerated: the source hardly ever lists a survival T/C far under the control, and the zero likely stands for such cases as well. Survivors were counted at the toxicity check, usually on the fifth day, unless a day is given; later deaths do not show. Schedules are NCI's codes, taken here to give the interval after Q, in days (D) or hours (H), and the number of doses after X. Some molecules as drawn cover several salts, stereoisomers or complexes of the source; a dose is that of the sample tested. Some entries were tested several times; the results are listed from low to high. Some schedules carry Z or #; the key to these is not given. For survival time, this PubChem deposit counts one and a half times the control or more as active, and values a quarter to a half above the control carry no call in these data; other NCI protocols may use other cut-offs. Some T/C values carry the count of animals alive at the toxicity check (mostly the fifth day); without a count, all were alive then.

Tested on: L1210 leukemia ip in BDF1 mice, survival T/C
Experiment: NCI In Vivo Anticancer Drug Screen. Data for tumor model L1210 Leukemia (intraperitoneal) in B6D2F1 (BDF1) mice
Settings: T/C endpoint: mean survival time, higher T/C = longer survival
[1] = dose: 50.0 mg/kg/injection, schedule: Q01DX009 (ip), vehicle: Klucel (hydroxypropylcellulose) (HPC)
[2] = dose: 100.0 mg/kg/injection, schedule: Q04DX003 (ip), vehicle: Klucel (hydroxypropylcellulose) (HPC)
[3] = dose: 200.0 mg/kg/injection, schedule: Q04DX003 (ip), vehicle: Klucel (hydroxypropylcellulose) (HPC)
[4] = dose: 400.0 mg/kg/injection, schedule: Q04DX003 (ip), vehicle: Klucel (hydroxypropylcellulose) (HPC)
[5] = dose: 200.0 mg/kg/injection, schedule: Q01DX001 (ip), vehicle: saline
[6] = dose: 100.0 mg/kg/injection, schedule: Q01DX009 (ip), vehicle: Klucel (hydroxypropylcellulose) (HPC)
[7] = dose: 200.0 mg/kg/injection, schedule: Q01DX009 (ip), vehicle: Klucel (hydroxypropylcellulose) (HPC)
[8] = dose: 300.0 mg/kg/injection, schedule: Q01DX001 (ip), vehicle: saline
[9] = dose: 400.0 mg/kg/injection, schedule: Q01DX009 (ip), vehicle: Klucel (hydroxypropylcellulose) (HPC)
[10] = dose: 50.0 mg/kg/injection, schedule: Q01DX009 (ip), vehicle: saline
[11] = dose: 100.0 mg/kg/injection, schedule: Q01DX009 (ip), vehicle: saline
[12] = dose: 400.0 mg/kg/injection, schedule: Q04DX003 (ip), vehicle: saline

Compound: c1ccc(CCNc2ccnc3ccccc23)cc1
- survivor count [1]: 3 of 6
- survivor count [2]: 0 of 6
- survivor count [3]: 3 of 6
- survivor count [4]: 0 of 6

Compound: C/C(Cc1ccccc1)=N\O
- survivor count (dose: 200.0 mg/kg/injection, schedule: Q01DX009 (ip), vehicle: saline with Tween-80): 6 of 6

Compound: CNC1(c2ccc(F)cc2)CCCCC1
- survivor count [5]: 1 of 4
- survivor count (dose: 400.0 mg/kg/injection, schedule: Q01DX001 (ip), vehicle: saline): 0 of 4

Compound: CCCCP(=[Se])(CCCC)CCCC
- survivor count (dose: 12.5 mg/kg/injection, schedule: Q01DX009 (ip), vehicle: Klucel (hydroxypropylcellulose) (HPC)): 0 of 6
- survivor count (dose: 25.0 mg/kg/injection, schedule: Q01DX009 (ip), vehicle: Klucel (hydroxypropylcellulose) (HPC)): 0 of 6
- survivor count [2]: 6 of 6
- survivor count [3]: 2 of 6
- survivor count [4]: 0 of 6

Compound: OCC(O)COc1ccc(OCc2ccccc2)cc1 (stereo not drawn)
- survivor count [6]: 6 of 6
- survivor count [7]: 6 of 6

Compound: CCc1c(C)nnn1-c1ccccc1
- survivor count [8]: 3 of 6

Compound: Cc1ccc(NC(=O)Nc2ccc(Cl)c(Cl)c2)c(C)c1
- survivor count [9]: 6 of 6

Compound: O=[N+]([O-])c1ccc(/C=N/c2nccs2)o1
- survivor count (dose: 12.5 mg/kg/injection, schedule: Q01DX009 (ip), vehicle: saline): 5 of 6
- survivor count (dose: 25.0 mg/kg/injection, schedule: Q01DX009 (ip), vehicle: saline): 4 of 6
- survivor count [10]: 4 of 6
- survivor count [11]: 2 of 6
- survivor count (dose: 200.0 mg/kg/injection, schedule: Q04DX003 (ip), vehicle: saline): 2 of 6
- survivor count [12]: 0 of 6

Compound: COC(=O)c1ccccc1Cn1ccnc1
- survivor count (dose: 400.0 mg/kg/injection, schedule: Q01DX009 (ip), vehicle: saline): 0 of 6 and 1 of 3
- survivor count [12]: 5 of 6

Compound: c1ccc([P+](Cc2nc3ccccc3[nH]2)(c2ccccc2)c2ccccc2)cc1
- survivor count [10]: 6 of 6
- survivor count [11]: 5 of 6
- survivor count [7]: 0 of 3

Compound: [N-]=[N+]=CC(=O)CCC(=O)C=[N+]=[N-]
- T/C (dose: 3.0 mg/kg/injection, schedule: Q01DX009 (ip), vehicle: other): 148 % of control [5 of 6 alive]

Compound: O=C(COc1ccc(Cl)cc1)Nc1ccc[n+](Cc2ccc(S(=O)(=O)F)cc2)c1
- survivor count [9]: 6 of 6

Compound: CCCC[P+](c1ccccc1)(c1ccccc1)c1ccccc1
- survivor count (dose: 6.25 mg/kg/injection, schedule: Q01DX009 (ip), vehicle: saline): 4 of 6
- survivor count [10]: 2 of 6
- survivor count [6]: 2 of 6
- survivor count (dose: 100.0 mg/kg/injection, schedule: Q04DX003 (ip), vehicle: saline sonified): 0 of 6
- survivor count [7]: 0 of 6
- survivor count (dose: 200.0 mg/kg/injection, schedule: Q04DX003 (ip), vehicle: saline sonified): 0 of 6
- survivor count [9]: 1 of 6
- survivor count (dose: 400.0 mg/kg/injection, schedule: Q04DX003 (ip), vehicle: saline sonified): 0 of 6

Compound: NC1CCC(Cl)CC1 (stereo not drawn)
- survivor count [12]: 6 of 6

Compound: C=CCOP(=O)(N1CC1C)N1CC1C (stereo not drawn)
- T/C (dose: 89.0 mg/kg/injection, schedule: Q01DX001 (ip), vehicle: saline): 125 % of control
- T/C (dose: 100.0 mg/kg/injection, schedule: Q01DX001 (ip), vehicle: saline): 130 % of control
- survivor count (dose: 100.0 mg/kg/injection, schedule: Q01DX015 (ip), vehicle: saline): 5 of 6
- T/C (dose: 133.0 mg/kg/injection, schedule: Q01DX001 (ip), vehicle: saline): 125 and 132 % of control
- T/C [5]: 141 and 145 % of control
- T/C [8]: 133 % of control

Compound: CC(=O)Oc1ccc(N(CCCl)CCCl)cc1OC(C)=O
- T/C (dose: 75.0 mg/kg/injection, schedule: Q01DX001 (ip), vehicle: other): 136 % of control
- survivor count (dose: 300.0 mg/kg/injection, schedule: Q01DX001 (ip), vehicle: other): 3 of 6

Compound: ClCCN(CCCl)c1ccc(CCN2CCCCC2)cc1
- survivor count [1]: 3 of 3
- survivor count [6]: 0 of 3
- survivor count [7]: 0 of 3

Compound: O=C(O)CCC(=O)Oc1ccccc1
- survivor count (dose: 400.0 mg/kg/injection, schedule: Q04DX003 (ip), vehicle: other): 1 of 6

Compound: S=C1SCN(c2ccccc2)CN1c1ccccc1
- survivor count (dose: 400.0 mg/kg/injection, schedule: Q04DX003 (ip), vehicle: saline with Tween-80): 6 of 6

Compound: CN(CCCl)Cc1ccccc1
- T/C (dose: 12.3 mg/kg/injection, schedule: Q01DX Z (ip), vehicle: methylcellulose (MC)): 114, 114 [5 of 6 alive], 129, 131 % of control
- T/C (dose: 18.8 mg/kg/injection, schedule: Q01DX Z (ip), vehicle: methylcellulose (MC)): 129 % of control [5 of 6 alive]
- T/C (dose: 28.0 mg/kg/injection, schedule: Q01DX Z (ip), vehicle: methylcellulose (MC)): 131 % of control
- T/C (dose: 42.0 mg/kg/injection, schedule: Q01DX Z (ip), vehicle: methylcellulose (MC)): 98, 100, 105, 114 % of control [5 of 6 alive]
- survivor count [6]: 5 of 6
- survivor count [3]: 1 of 6

Compound: CCOC(=O)C1C=NC([N+](=O)[O-])=C1Br (stereo not drawn)
- survivor count (dose: 200.0 mg/kg/injection, schedule: Q04DX002 (ip), vehicle: Klucel (hydroxypropylcellulose) (HPC)): 3 of 3

Compound: Nc1nc2c(ncn2-c2ccc(OCCCc3ccccc3)cc2)c(=O)[nH]1
- survivor count (dose: 12.5 mg/kg/injection, schedule: Q01DX001 (ip), vehicle: saline with Tween-80): 6 of 6
- survivor count (dose: 50.0 mg/kg/injection, schedule: Q01DX001 (ip), vehicle: saline with Tween-80): 6 of 6
- survivor count (dose: 100.0 mg/kg/injection, schedule: Q01DX001 (ip), vehicle: saline with Tween-80): 6 of 6

Compound: O=C1C2C(C(=O)N1c1cccc3ccccc13)C1(Cl)C(Cl)=C(Cl)C2(Cl)C1(Cl)Cl (stereo not drawn)
- survivor count [6]: 3 of 6
- survivor count [7]: 1 of 6
- survivor count [9]: 0 of 6

Compound: CCN(CC)CCCC(C)Nc1c2ccc(Cl)cc2nc2ccc(F)cc12 (stereo not drawn)
- survivor count (dose: 150.0 mg/kg/injection, schedule: Q01DX Z (ip), vehicle: saline): 1 of 6

Compound: CCCCNC(C)(C)C(SS)c1ccco1 (stereo not drawn)
- survivor count (dose: 225.0 mg/kg/injection, schedule: Q01DX009 (ip), vehicle: saline with Tween-80): 1 of 6
- survivor count (dose: 335.0 mg/kg/injection, schedule: Q01DX009 (ip), vehicle: saline with Tween-80): 1 of 6
- survivor count (dose: 400.0 mg/kg/injection, schedule: Q04DX003 (ip), vehicle: alcohol): 4 of 6

Compound: CCC12CCCN=C1c1c([nH]c3ccccc13)CC2 (stereo not drawn)
- survivor count (dose: 100.0 mg/kg/injection, schedule: Q04DX002 (ip), vehicle: saline with Tween-80): 0 of 3
- survivor count (dose: 200.0 mg/kg/injection, schedule: Q04DX002 (ip), vehicle: saline with Tween-80): 0 of 3
- survivor count (dose: 400.0 mg/kg/injection, schedule: Q04DX002 (ip), vehicle: saline with Tween-80): 0 of 3

Compound: O=C(CCCN1CCC(O)(c2ccc(Cl)cc2)CC1)c1ccc(F)cc1
- T/C (dose: 10.0 mg/kg/injection, schedule: Q01DX009 (ip), vehicle: saline): 134 % of control
- T/C (dose: 20.0 mg/kg/injection, schedule: Q01DX009 (ip), vehicle: saline): 128 % of control
- survivor count (dose: 80.0 mg/kg/injection, schedule: Q01DX009 (ip), vehicle: saline): 3 of 6
- survivor count (dose: 160.0 mg/kg/injection, schedule: Q01DX009 (ip), vehicle: saline): 6 of 6
- survivor count (dose: 320.0 mg/kg/injection, schedule: Q04DX003 (ip), vehicle: Klucel (hydroxypropylcellulose) (HPC)): 1 of 6

Compound: CC(C)(C)c1ccc(SSc2ccc(C(C)(C)C)cc2)cc1
- survivor count [6]: 0 of 6

Compound: CSc1ncnc(C)c1N
- survivor count (dose: 125.0 mg/kg/injection, schedule: Q01DX Z (ip), vehicle: saline): 0 of 6
